Assay results reported in PMC10684575.
Results are given in words; binding and its absence hold for the method and conditions named. Binding seen in cells or lysates may run through a third protein. Some binding calls cover weakened binding; strength is not graded here. For some assays here: Where a sequence is shown, tags or fusion partners need not be part of it.

By UniProt entry, the sequences of proteins in these tests, tags left out.
UniProt P51150: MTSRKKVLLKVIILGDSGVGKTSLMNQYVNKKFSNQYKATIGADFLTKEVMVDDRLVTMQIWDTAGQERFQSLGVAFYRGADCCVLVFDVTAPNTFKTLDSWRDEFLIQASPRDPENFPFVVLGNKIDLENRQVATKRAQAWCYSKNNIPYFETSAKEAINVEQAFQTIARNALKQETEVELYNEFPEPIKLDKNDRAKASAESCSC

Assays:
[1] = biological target: T1, 3× FLAG-tagged TRAF6 (not stated (NM_009424.3 is a mouse entry, from memory)) (UniProt P70196); assay: co-IP; HEK293T cells co-transfected, 48 h; lysed in CHAPS buffer; IP with anti-FLAG antibody and protein A/G PLUS-agarose at 4 °C; blot with anti-HA and anti-FLAG
T1 sequence: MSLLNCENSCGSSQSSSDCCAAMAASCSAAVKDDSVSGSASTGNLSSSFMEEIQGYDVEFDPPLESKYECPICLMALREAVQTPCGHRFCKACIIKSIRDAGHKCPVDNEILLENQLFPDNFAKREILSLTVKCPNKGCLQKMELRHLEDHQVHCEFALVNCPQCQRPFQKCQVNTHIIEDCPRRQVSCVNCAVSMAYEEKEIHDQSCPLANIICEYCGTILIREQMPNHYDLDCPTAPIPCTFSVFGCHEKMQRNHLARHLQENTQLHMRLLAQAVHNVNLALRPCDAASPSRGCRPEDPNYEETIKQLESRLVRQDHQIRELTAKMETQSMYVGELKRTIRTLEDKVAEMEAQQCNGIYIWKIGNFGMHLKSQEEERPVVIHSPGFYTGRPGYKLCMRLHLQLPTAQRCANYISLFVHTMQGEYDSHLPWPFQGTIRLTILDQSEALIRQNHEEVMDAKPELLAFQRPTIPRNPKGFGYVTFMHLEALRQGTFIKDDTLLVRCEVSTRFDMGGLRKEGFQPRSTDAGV

[2] = biological target: T2, TRAF6 (endogenous, mouse macrophages) (mouse (endogenous in BMDMs and RAW264.7)) (UniProt P70196); assay: co-IP
T2 sequence: T1 sequence

5× HA-tagged Rab7 = 5× HA-tagged Rab7 (UniProt P51150); assay: co-IP; HEK293T cells co-transfected, 48 h (for Rab7-STX17 with or without FLAG-TRAF6 or TRAF6 4#); lysed in CHAPS buffer; IP with anti-HA antibody and protein A/G PLUS-agarose at 4 °C; blot with the indicated antibodies
[3] = biological target: Rab7 (endogenous, mouse macrophages) (mouse (endogenous in BMDMs and RAW264.7)) (UniProt P51150); assay: co-IP

5× HA-tagged Rab7 (from UniProt P51150 1-207)
binding [1]: binds

B1: STX17 (syntaxin 17; endogenous, mouse macrophages) (protein, UniProt Q9D0I4 1-301)
chain: MSEDEEKVKLRRLEPAIQKFTKIVIPTDLERLRKHQINIEKYQRCRIWDKLHEEHINAGRTVQQLRSNIREMEKLCLKVHKDDLVLLKRMIDPVKEAAATATAEFLQLHLESVEELKKQVNDEELLQPSLTRSTTVDGVLHTGEAEAASQSLTQIYALPEIPQDQNAAESWETLEADLIELSHLVTDMSLLVSSQQEKIDSIADHVNSAAVNVEEGTKNLQKAAKYKLAALPVAGALIGGVVGGPIGLLAGFKVAGIAAALGGGVLGFTGGKLIQRRKQKMMEKLTSSCPDLPSQSDKKRS
binding [2]: binds

B2: STX17 (overexpressed in HEK293T cells) (protein, UniProt Q9D0I4 1-301)
chain: B1 chain
binding (5× HA-tagged Rab7): binds

B3: 3× FLAG-tagged TRAF6 (protein, UniProt P70196-1 1-530)
chain: T1 sequence
binding (5× HA-tagged Rab7): binds

B4: TRAF6 (endogenous, mouse macrophages) (protein, UniProt P70196 1-530)
chain: T1 sequence
binding [3]: binds
